Positions count from the first letter of the chain named. Results are given in words; binding and its absence hold for the method and conditions named. Binding can be weak; no strength is given.
Legend:
[1] = molecular target: cynomolgus CCL20-secreted alkaline phosphatase (SEAP) fusion (cynomolgus monkey); test: ELISA on CCL20-SEAP, Abs 450; x axis 'ug/ml' in 4-fold steps down from 10, taken as the antibody concentration as in FIG. 11C
[2] = molecular target: rhesus CCL20-secreted alkaline phosphatase (SEAP) fusion (rhesus monkey); test: as above
[3] = molecular target: cynomolgus CCL20-secreted alkaline phosphatase (SEAP) fusion (cynomolgus monkey); test: ELISA (FIGS. 16A-C)
[4] = molecular target: rhesus CCL20-secreted alkaline phosphatase (SEAP) fusion (rhesus monkey); test: ELISA (FIGS. 16A-C)
[5] = molecular target: cynomolgus CCL20-secreted alkaline phosphatase (SEAP) fusion (cynomolgus monkey); test: ELISA (FIGS. 17A and B)
[6] = molecular target: rhesus CCL20-secreted alkaline phosphatase (SEAP) fusion (rhesus monkey); test: ELISA (FIGS. 17A and B)
[7] = molecular target: cynomolgus CCL20-secreted alkaline phosphatase (SEAP) fusion (cynomolgus monkey); test: SPR (Biacore), CCL20-SEAP captured by anti-SEAP
[8] = molecular target: rhesus CCL20-secreted alkaline phosphatase (SEAP) fusion (rhesus monkey); test: SPR (Biacore), CCL20-SEAP captured by anti-SEAP
[9] = molecular target: cynomolgus CCL20-secreted alkaline phosphatase (SEAP) fusion (cynomolgus monkey); test: ELISA, CCL20-SEAP captured by anti-alkaline phosphatase antibody
[10] = molecular target: rhesus CCL20-secreted alkaline phosphatase (SEAP) fusion (rhesus monkey); test: as above
[11] = molecular target: cynomolgus CCL20-secreted alkaline phosphatase (SEAP) fusion (cynomolgus monkey); test: ELISA (fluorescent HRP substrate): CCL20-SEAP captured on anti-alkaline phosphatase in 5-fold dilutions from 20 nM (x axis, nM), antibody at 1 ug/ml
[12] = molecular target: rhesus CCL20-secreted alkaline phosphatase (SEAP) fusion (rhesus monkey); test: as above

Measured: binding

B1: mouse anti-human CCL20 monoclonal antibody 36F7C10 (antibody, V domains shown)
VH: QVQLQQPGAELVKPGASVKMSCKASGYTFTNYWMHWVKQRPGQGLEWIGVIDPSDSYTTYNQKFKGKATLTVDTSSSTAYMQLSSLTSEDSAVYYCTRGNYGVDYAMDYWGQGTSVTVSS
VL: DIQMTQSPASLSASVGETVTITCGASENIYGALNWYQRKQGKSPQLLIYGATNLADGMSSRFSGSGSGRQYSLKISSLHPDDVATYYCQNVLITPYTFGGGTKLEIK
binds: [1] | [2]

B2: chimeric 36F7C10 antibody (36F7C10-hFc) (antibody, V domains shown)
VH: B1 VH
VL: B1 VL
binds: [3] | [4] | [5] | [6] | [7] | [8] | [9] | [10] | [1] | [2]

B3: humanized anti-human CCL20 antibody 36LC3/36HC2 (antibody, human IgG1, kappa, V domains shown)
VH: QVQLVQSGAEVKKPGASVKVSCKASGYTFTNYWMHWVRQAPGQGLEWMGVIDPSDSYTTYAQKFQGRVTMTVDTSTSTVYMELSSLRSEDTAVYYCARGNYGVDYAMDYWGQGTLVTVSS
VL: DIQMTQSPSSLSASVGDRVTITCRASENIYGALNWYQQKPGKAPKLLIYGATNLADGVPSRFSGSGSGRQYSLTISSLQPEDFATYYCQNVLITPYTFGGGTKLEIKR
binds: [3] | [4] | [5] | [6] | [7] | [8] | [9] | [10] | [1] | [2] | [11] | [12]

B4: humanized anti-human CCL20 antibody 36LK3/36HC2 (antibody, human IgG1, kappa, V domains shown)
VH: B3 VH
VL: B3 VL with R24G, Q38R, Q70D, S72T, G100Q
binds: [3] | [4] | [5] | [6] | [7] | [8] | [9] | [10] | [1] | [2]
